Results published in publication doi:10.1101/2020.07.20.211417.
No constants are given. Whether binding was seen depends on the method and setting. Binding seen in cells or lysates may run through a third protein. Some binding calls cover weakened binding; strength is not graded here. For part of these data: Where a sequence is shown, tags or fusion partners need not be part of it.

Sequences of proteins named here, by UniProt entry; tags and fusion partners are left off.
UniProt P62993: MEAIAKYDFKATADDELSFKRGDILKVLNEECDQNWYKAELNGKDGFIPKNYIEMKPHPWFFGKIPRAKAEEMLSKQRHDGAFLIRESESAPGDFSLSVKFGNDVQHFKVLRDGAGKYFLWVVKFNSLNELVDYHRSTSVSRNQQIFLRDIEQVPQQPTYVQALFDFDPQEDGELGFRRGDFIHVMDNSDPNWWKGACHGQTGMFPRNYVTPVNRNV
UniProt O00459: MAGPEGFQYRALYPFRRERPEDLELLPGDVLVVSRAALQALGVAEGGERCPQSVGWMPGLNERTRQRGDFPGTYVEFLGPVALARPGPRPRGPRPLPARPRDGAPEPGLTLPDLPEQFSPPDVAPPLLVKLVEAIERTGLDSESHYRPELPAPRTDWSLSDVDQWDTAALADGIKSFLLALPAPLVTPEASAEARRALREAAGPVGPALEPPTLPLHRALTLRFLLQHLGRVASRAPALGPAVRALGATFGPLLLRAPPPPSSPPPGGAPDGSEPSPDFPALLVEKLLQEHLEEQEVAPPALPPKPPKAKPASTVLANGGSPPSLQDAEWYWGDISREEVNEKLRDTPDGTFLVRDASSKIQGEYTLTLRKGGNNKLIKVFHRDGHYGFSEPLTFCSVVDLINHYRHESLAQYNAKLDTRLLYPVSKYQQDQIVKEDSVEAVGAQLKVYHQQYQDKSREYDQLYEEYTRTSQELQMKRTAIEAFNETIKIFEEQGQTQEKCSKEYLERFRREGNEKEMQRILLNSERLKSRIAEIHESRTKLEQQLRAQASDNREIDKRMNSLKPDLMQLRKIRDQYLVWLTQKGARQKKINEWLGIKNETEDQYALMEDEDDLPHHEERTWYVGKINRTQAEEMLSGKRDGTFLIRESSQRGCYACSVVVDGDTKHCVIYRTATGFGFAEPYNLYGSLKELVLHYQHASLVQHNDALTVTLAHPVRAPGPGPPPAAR

What was measured:
[1] = target: T1, Myc-tagged IRS4, tyrosine-phosphorylated by co-expressed FER-WT (UniProt O14654); assay: co-IP
T1 sequence: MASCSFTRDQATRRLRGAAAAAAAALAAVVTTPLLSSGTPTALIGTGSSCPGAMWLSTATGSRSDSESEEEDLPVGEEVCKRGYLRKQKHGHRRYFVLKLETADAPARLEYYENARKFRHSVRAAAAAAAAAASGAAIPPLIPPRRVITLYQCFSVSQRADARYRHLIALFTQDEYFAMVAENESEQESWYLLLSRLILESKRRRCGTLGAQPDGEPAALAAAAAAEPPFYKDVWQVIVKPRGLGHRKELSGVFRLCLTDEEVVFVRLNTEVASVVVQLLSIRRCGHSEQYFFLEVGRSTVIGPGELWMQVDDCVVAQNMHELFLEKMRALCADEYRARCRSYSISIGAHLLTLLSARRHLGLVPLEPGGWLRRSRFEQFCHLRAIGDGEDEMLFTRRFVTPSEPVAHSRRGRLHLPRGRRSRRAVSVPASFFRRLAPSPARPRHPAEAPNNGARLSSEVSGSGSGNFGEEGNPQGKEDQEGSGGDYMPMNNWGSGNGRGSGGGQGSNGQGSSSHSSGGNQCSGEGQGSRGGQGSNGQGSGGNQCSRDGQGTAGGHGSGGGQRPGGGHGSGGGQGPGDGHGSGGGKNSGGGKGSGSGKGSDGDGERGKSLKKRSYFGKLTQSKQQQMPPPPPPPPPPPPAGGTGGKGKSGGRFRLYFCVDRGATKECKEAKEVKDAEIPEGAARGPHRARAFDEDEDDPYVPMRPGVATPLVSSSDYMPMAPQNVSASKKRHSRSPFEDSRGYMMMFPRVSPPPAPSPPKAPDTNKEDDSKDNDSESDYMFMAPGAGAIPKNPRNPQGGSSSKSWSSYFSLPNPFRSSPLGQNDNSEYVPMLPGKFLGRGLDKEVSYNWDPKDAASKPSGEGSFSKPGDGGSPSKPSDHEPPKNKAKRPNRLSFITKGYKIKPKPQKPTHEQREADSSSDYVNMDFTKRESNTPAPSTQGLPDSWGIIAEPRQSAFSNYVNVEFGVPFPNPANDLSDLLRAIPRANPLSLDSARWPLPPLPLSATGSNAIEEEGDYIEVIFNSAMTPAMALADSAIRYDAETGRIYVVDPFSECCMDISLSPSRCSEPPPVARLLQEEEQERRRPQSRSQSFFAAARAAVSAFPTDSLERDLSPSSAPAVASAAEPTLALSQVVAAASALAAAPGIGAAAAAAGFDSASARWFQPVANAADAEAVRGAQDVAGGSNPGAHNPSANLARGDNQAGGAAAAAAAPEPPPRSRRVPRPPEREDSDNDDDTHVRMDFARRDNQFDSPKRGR

[2] = target: T2, IRS4, endogenous in OVCAR-5 cells (human (endogenous in OVCAR-5)) (UniProt O14654); assay: co-IP
T2 sequence: T1 sequence

Substance	binding [1]	binding [2]
GRB2 (from UniProt P62993 1-217)	binds	–
PIK3R2/p85β, the regulatory subunit of PI-3K (from UniProt O00459 1-728)	binds	binds
